Experimental data reported in PMC13186709.

Tested on: Egalitarian (Egl) + Bicaudal D (BicD)
Test: MST
Conditions: MST: 1 nM Cy5-RNA in GF150 (25 mM HEPES pH 7.3, 150 mM KCl, 1 mM MgCl2, 0.1 mM Mg-ATP, 5 mM DTT, 10% glycerol) + 0.05% Tween-20, 15 min, room temperature, recombinant protein, protein details: C-terminal TEV-ZZ (cleaved), label: 5'-Cy5

## UUACACCACUUGAUUGUAUUUUUAAAUUAAUUCUUAAAAAUACAAUUAAGAUCACUCU [TLS∆b]
Prep 1 (order in figure)
  Kd: 6500 nM
Prep 2 (order in figure)
  Kd: 2360 nM
Prep 3 (order in figure)
  Kd: 1820 nM

The exact form of at least one protein or probe is not confirmed.
